From paper PMC3709506
Results are given in words; binding and its absence hold for the method and conditions named. Some binding calls cover weakened binding; strength is not graded here.

Protein sequences, listed by entry. Tags and fused reporters are not part of them.
UniProt P69447: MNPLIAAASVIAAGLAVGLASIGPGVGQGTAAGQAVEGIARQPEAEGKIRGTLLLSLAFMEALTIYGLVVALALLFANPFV

Molecular target: chloroplast ATP synthase (cATPase) subunit III, membrane ring (III)14 (Spinacia oleracea) (UniProt P69447)
Test: native MS; intact cATPase from n-dodecyl-β-D-maltopyranoside buffer exchanged into 200 mM ammonium acetate; micelle stripped by gas-phase activation (collision energy 100-200 V); complexes formed in solution and gas-phase dissociation products assigned with Massign; both purified

Substance: chloroplast ATP synthase (cATPase) subunit III, membrane ring (III)14 (from UniProt P69447 1-81)
- binding: binds
